Assay results taken from US7829292B2, “Compositions and methods for diagnosing, predicting therapeutic response of, and monitoring autoimmune disease” (The Regents of the University of Michigan, priority 2002, dated 2010).
At least one compound was matched to its structure with a doubt left.

Experiment: Hearing improvement after steroid treatment in patients with active sensorineural hearing loss
Type: in vivo, human
Settings: of eleven patients who received dose packs (methylprednisolone 24 mg loading dose tapered by 4 mg daily for 6 days)

C[C@H]1C[C@@H]2[C@H]([C@@H](O)C[C@@]3(C)[C@H]2CC[C@]3(O)C(=O)CO)[C@@]2(C)C=CC(=O)C=C12 [Medrol, methylprednisolone]
patients who showed a considerable improvement (hearing), no further treatment given: Nine
